# Laboratory results: PubChem BioAssay AID1487 (National Center for Advancing Translational Sciences (NCATS), 2009)
# This is one part of the list. Further columns of the screen follow, without active or inactive calls. Most of these compounds were active or inconclusive in the main read-out, so they are no random draw. Words in brackets tell the shape of the fitted curve; partial curves, single points and poor fits give uncertain potencies.
# Assay: qHTS Assay for Modulators of Lamin A Splicing
# Conditions: HeLa LMNA splicing GFP/RFP minigene ratio, 48 h
# Method in brief: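 S3 HeLa stable clones carrying a lamin A-EGFP splicing minigene plus DsRed2 were seeded at 600 cells/well in Opti-MEM with 2% FBS, pin-dosed and incubated 48 h at 37°C. Acumen cytometry (488 nm) gave the GFP/RFP total-intensity ratio.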
# [1] = measured here: GFP splicing reporter channel
# [2] = measured here: RFP viability control channel
SMILES,AC50 [1],AC50 [2]
C=CCOc1c(Cl)cc(CNc2ccc(N(C)C)cc2)cc1OC,"35.5 µM [falling, single point]","35.5 µM [falling, single point]"
[O-][n+]1c2c(c3c4non(O)c4ccc31)CCCC2,,"22.4 µM [rising, single point]"
CCC1C(=NO)C(CC)C(c2ccccc2)NC1c1ccccc1 (centres undefined),"35.5 µM [falling, single point]","3.16 µM [falling, single point]"
COc1ccc(NC(=O)Cn2c(=O)n(CC3CCCO3)c(=O)c3ccccc32)c(OC)c1 (centres undefined),"14.1 µM [falling, partial curve]",
O=C(CCc1ccc(S(=O)(=O)N2CCOCC2)cc1)Nc1nc(COc2ccccc2)cs1,"10 µM [rising, partial curve]","8.91 µM [rising, partial curve]"
CCOc1cc(-c2cc(-c3ccccc3)nc(N)c2C#N)ccc1O,,"15.8 µM [rising, single point]"
COc1ccc(NS(=O)(=O)/C=C/c2ccccc2)cc1,,"35.5 µM [rising, single point]"
COc1ccc(/C=N/Nc2cn[nH]c(=O)c2Cl)cc1,,"22.4 µM [falling, partial curve, poor fit]"
Cc1c(C(=O)N2CCCCC2)nn(-c2ccc(Cl)cc2)c(=O)c1C#N,,"1.26 µM [falling, partial curve, poor fit]"
O=C(COc1ccc2ccccc2c1)Nc1cccc(C(=O)Nc2ccccc2C(=O)O)c1,,"22.4 µM [rising, partial curve, poor fit]"
CN(Cc1ccccc1)C(=O)C1CCCN(Cc2ccc(Cl)cc2)C1 (centres undefined),"5.01 µM [rising, single point]",
COc1ccccc1N1CCN(C(=O)c2ccc(CSc3ccccc3)cc2)CC1,"0.1 µM [rising, full curve, poor fit]","20 µM [rising, partial curve, poor fit]"
Cc1ccc(C(C(=O)NC2CCCC2)N(Cc2cccnc2)C(=O)c2snc(C(N)=O)c2N)o1 (centres undefined),,"3.16 µM [rising, single point]"
CN1CCN(C(=O)CSc2nc(-c3cccs3)cc(-c3cccs3)c2C#N)CC1,"35.5 µM [rising, single point]","35.5 µM [rising, single point]"
O=C(COC(=O)Cc1ccc(Cl)cc1)Nc1c(F)cccc1F,"35.5 µM [falling, partial curve]",
CCCCCCCCC[n+]1cccc2c3ccccc3ccc21,"11.2 µM [falling, single point]","20 µM [falling, partial curve, poor fit]"
Cc1cc(NC(=O)NCc2ccc3c(c2)CCN3C(=O)c2ccccc2)ccc1Br,"6.31 µM [falling, single point]",
Cn1c(=O)n(C)c2cc([N+](=O)[O-])c(N3CCN(S(=O)(=O)c4ccccc4)CC3)cc21,"22.4 µM [rising, single point]","22.4 µM [rising, partial curve, poor fit]"
O=C(COC(=O)c1cccnc1)c1ccc(Cl)cc1,,"5.62 µM [rising, single point]"
COc1ccc(NC(=O)Cn2c(C)cc(=O)c3ccccc32)cc1,,"4.47 µM [rising, full curve]"
Cc1cc(C)nc(N/N=C/c2ccccc2OCc2ccc(Br)cc2)n1,"0.00447 µM [rising, full curve, poor fit]","35.5 µM [rising, single point]"
CC(C)[C@@H](N)C(=O)O,"7.94 µM [rising, partial curve, poor fit]","20 µM [rising, partial curve, poor fit]"
O=C(CSc1nnc(-c2ccccc2)o1)NCC1CCCCC1,"0.0562 µM [rising, full curve, poor fit]",
CCC1Sc2ccccc2N(CC(=O)NCc2ccccc2OC)C1=O (centres undefined),"31.6 µM [rising, single point]","31.6 µM [rising, single point]"
Cc1cc2nc(C)n(CCCNC(=O)Nc3cccc4ccccc34)c2cc1C,,"25.1 µM [rising, single point]"
CCC(C)n1c(=O)c(C(=O)Nc2ccccc2S(N)(=O)=O)c(O)c2ccccc21 (centres undefined),,"12.6 µM [rising, single point]"
Cc1ccc(OCC(=O)N/N=C/C=C/c2ccco2)cc1C,,"0.0355 µM [rising, full curve, poor fit]"

# A few values from the results shown:
# O=C(COC(=O)c1cccnc1)c1ccc(Cl)cc1 – AC50 [2]: 5.62 µM [rising, single point]
# COc1ccc(NS(=O)(=O)/C=C/c2ccccc2)cc1 – AC50 [2]: 35.5 µM [rising, single point]

# Next part.

SMILES,AC50 [1],AC50 [2]
COc1ccc(O[C@H]2C=C[C@@H](c3ccccc3)O[C@@H]2CO/N=C(\C)CCC(=O)OC[C@H]2O[C@H](c3ccccc3)C=C[C@@H]2Oc2ccc(OC)cc2)cc1,,"3.98 µM [rising, single point]"
COc1ccc(CNc2ccnc(-c3cccc(C#N)c3)n2)c(OC)c1,"7.08 µM [falling, partial curve]","15.8 µM [falling, partial curve]"
O=c1cc(CN2CCN(c3cccc(Cl)c3)CC2)c2cc(O)c(-c3ccccc3)cc2o1,"35.5 µM [falling, single point]",
CCOc1ccc(NC(=O)c2c(NCc3sccc3C)sc3c2CCCCC3)cc1,"1.12 µM [rising, partial curve, poor fit]","35.5 µM [rising, partial curve]"
COc1ccc(CCNC(=O)COc2ccc(S(=O)(=O)NC3CCCCC3)cc2Cl)cc1OC,"31.6 µM [rising, single point]","28.2 µM [rising, single point]"
Cc1c(NS(=O)(=O)c2ccc3c(c2)Cc2ccccc2-3)c(=O)n(-c2ccccc2)n1C,"0.0708 µM [rising, full curve, poor fit]","5.01 µM [rising, partial curve, poor fit]"
CC(=O)Nc1cccc(NC(=O)CSc2ccc(-c3cccnc3)nn2)c1,"35.5 µM [falling, partial curve, poor fit]","1.58 µM [falling, partial curve, poor fit]"
CCCOc1ccc(C(=O)N2CCN(c3ccc(NC(=O)CC)cc3Cl)CC2)cc1,,"12.6 µM [rising, single point]"
Cc1ccc(Cn2c(=N)n(CC(O)COc3ccccc3)c3ccccc32)cc1 (centres undefined),,"20 µM [rising, single point]"
O=C(CSc1nc2c([nH]c3ccccc32)c(=O)n1-c1ccc(F)cc1)NC1CCCCC1,"22.4 µM [falling, single point]","22.4 µM [falling, partial curve]"
CCOn1c(=O)c(-c2ccc(OC)c(OC)c2)[n+]([O-])c2ccccc21,,"0.398 µM [falling, full curve, poor fit]"
O=C(CC1S/C(=N/N=C/c2c[nH]c3ccccc23)NC1=O)Nc1ccccc1 (centres undefined),"15.8 µM [rising, partial curve, poor fit]",
CSc1ccc(CCNC(=O)c2ccc(CS(=O)(=O)c3ccc(Br)cc3)o2)cc1,,"1 µM [falling, full curve]"
COc1ccc2cc(C#N)c(SCC(=O)NNC(=O)Cc3ccccc3)nc2c1,,"35.5 µM [falling, single point]"
Cc1nn(Cc2c(Cl)cccc2Cl)c(C)c1NC(=O)c1cc(C(C)C)on1,"11.2 µM [falling, partial curve]","35.5 µM [falling, single point]"
Nc1nc(SCC(=O)Nc2cccc(Oc3ccccc3)c2)n[nH]1,,"31.6 µM [rising, single point]"
O=C(CN1C(=O)c2ccccc2S1(=O)=O)NC(Nc1ccccc1F)C(Cl)(Cl)Cl (centres undefined),"0.0447 µM [falling, full curve, poor fit]","0.0501 µM [falling, full curve]"
Fc1ccc(CSc2nnc3ccc(-c4ccncc4)nn23)cc1,"0.00891 µM [rising, full curve, poor fit]",
CCc1ccc2nc(SCC(=O)N(CC)CC)c(C#N)cc2c1,,"17.8 µM [rising, single point]"
O=C1N(Cc2cccc(C(F)(F)F)c2)c2ccccc2S(=O)(=O)N1c1cccc(Cl)c1,,"2 µM [rising, single point]"
COc1ccc(CNC(=O)c2cc3cc(S(=O)(=O)N4CCCCC4)ccc3n2C)c(OC)c1,"0.0224 µM [rising, full curve, poor fit]",
Nc1c(C(=O)C2CC2)sc2nc3c(cc12)CCC3,,"0.794 µM [falling, partial curve, poor fit]"
COc1ccc(NS(=O)(=O)c2cc3c(cc2C)NC(=O)CO3)c(OC)c1,"6.31 µM [rising, partial curve, poor fit]",
CCc1ccc(-c2nc(-c3ccncc3)no2)cc1,"12.6 µM [rising, partial curve, poor fit]","10 µM [rising, partial curve, poor fit]"
O=C(c1ccco1)c1cn[nH]c1-c1ccc(Cl)cc1O,,"12.6 µM [rising, partial curve, poor fit]"
CCc1ccc(NC(=O)c2ccc(C3SCC(=O)N3CCc3ccccc3)cc2)cc1 (centres undefined),,"7.94 µM [rising, partial curve]"
C/C(=N\NC(=O)c1ccc(C)cc1C)c1ccc2c(c1)Nc1ccccc1S2,"15.8 µM [rising, single point]","17.8 µM [rising, single point]"
